{
  "source": "patent US20250177371A1",
  "about": "“CFTR MODULATORS FOR THE TREATMENT OF VASCULAR DISEASE” (priority 2022, published 2025)",
  "system": "platelets isolated from blood of healthy donors",
  "experiment": "Flow cytometry of surface expression of activation markers CD62p and CD63 on platelets",
  "assay_type": "cell-based, human",
  "details": "platelets pre-treated 24 h with 10 µM ivacaftor or 5 µM forskolin prior to 50 µM ADP, 50 µM TRAP6 or 5 µM PAF",
  "experimental": "Flow Cytometry: Blood samples were collected and stained as previously described3. In brief, blood was directly stained in dilution buffer (NaCl 137 mM, KCl 2.7 mM, MgCl2 1 mM, 4-(2-hydroxyethyl)-1-piperazineethanesulfonic acid (HEPES) 20 mM, glucose 5.6 mM, bovine serum albumin 1 g/l, pH 7.4.) containing mouse anti-human anti-CD42b (GPlb) Phycoerythrin (PE, clone HIP1), anti-CD62p (P-selectin) Phycoerythrin-Cyanine 7 (PE/Cy7, clone AK4), anti-CD63 (GP53) and Brilliant Violet 421 (clone H5C6), all from BioLegend (San Diego, CA, USA), before cells were fixed with 2 mL of 0.2% PFA in PBS. In order to analyze isolated platelets, total citrate blood was centrifuged at 150 g for 15 min to separate platelet rich plasma (PRP) from blood cells. PRP was collected and centrifuged again at 1000 g for 15 min. Platelets were subsequently resuspended in 10% CPDA buffer in PBS (Sigma-Aldrich (St. Louis, MO, USA)) and incubated for 24 h in the presence of either vehicle (DMSO, Sigma-Aldrich (St. Louis, MO, USA)), 10 µM ivacaftor (Cayman Chemicals, Ann Arbor, MI, USA)) or 5 µM forskolin (Fisher Scientific (Pittsburgh, PA, USA)) before staining was applied as described above. […] All measurements were analyzed with FlowJo (version 8, Tree Star, Inc., Ashland, OR, USA).",
  "note": "For at least one compound, name, drawing or mass did not settle the structure.",
  "data": [
    {"smiles": "C=C[C@@]1(C)CC(=O)[C@]2(O)[C@@]3(C)[C@@H](O)CCC(C)(C)[C@@H]3[C@H](O)[C@H](OC(C)=O)[C@@]2(C)O1", "note": "[forskolin]", "values": [
      {"measurement": "agonist-induced upregulation of CD62p and CD63 (platelet activation)", "value": "prevented"}
    ]}
  ]
}
